Results: article PMC8124558
No constants are given. Whether binding was seen depends on the method and setting. In cells and extracts the contact can be indirect. Some entries that bind do so weakly or less than the wild type. Where a sequence is shown, tags or fusion partners need not be part of it.

Sequences of proteins named here, by UniProt entry; tags and fusion partners are left off. Residues count along the entry.
UniProt P07942, residues 22-1786: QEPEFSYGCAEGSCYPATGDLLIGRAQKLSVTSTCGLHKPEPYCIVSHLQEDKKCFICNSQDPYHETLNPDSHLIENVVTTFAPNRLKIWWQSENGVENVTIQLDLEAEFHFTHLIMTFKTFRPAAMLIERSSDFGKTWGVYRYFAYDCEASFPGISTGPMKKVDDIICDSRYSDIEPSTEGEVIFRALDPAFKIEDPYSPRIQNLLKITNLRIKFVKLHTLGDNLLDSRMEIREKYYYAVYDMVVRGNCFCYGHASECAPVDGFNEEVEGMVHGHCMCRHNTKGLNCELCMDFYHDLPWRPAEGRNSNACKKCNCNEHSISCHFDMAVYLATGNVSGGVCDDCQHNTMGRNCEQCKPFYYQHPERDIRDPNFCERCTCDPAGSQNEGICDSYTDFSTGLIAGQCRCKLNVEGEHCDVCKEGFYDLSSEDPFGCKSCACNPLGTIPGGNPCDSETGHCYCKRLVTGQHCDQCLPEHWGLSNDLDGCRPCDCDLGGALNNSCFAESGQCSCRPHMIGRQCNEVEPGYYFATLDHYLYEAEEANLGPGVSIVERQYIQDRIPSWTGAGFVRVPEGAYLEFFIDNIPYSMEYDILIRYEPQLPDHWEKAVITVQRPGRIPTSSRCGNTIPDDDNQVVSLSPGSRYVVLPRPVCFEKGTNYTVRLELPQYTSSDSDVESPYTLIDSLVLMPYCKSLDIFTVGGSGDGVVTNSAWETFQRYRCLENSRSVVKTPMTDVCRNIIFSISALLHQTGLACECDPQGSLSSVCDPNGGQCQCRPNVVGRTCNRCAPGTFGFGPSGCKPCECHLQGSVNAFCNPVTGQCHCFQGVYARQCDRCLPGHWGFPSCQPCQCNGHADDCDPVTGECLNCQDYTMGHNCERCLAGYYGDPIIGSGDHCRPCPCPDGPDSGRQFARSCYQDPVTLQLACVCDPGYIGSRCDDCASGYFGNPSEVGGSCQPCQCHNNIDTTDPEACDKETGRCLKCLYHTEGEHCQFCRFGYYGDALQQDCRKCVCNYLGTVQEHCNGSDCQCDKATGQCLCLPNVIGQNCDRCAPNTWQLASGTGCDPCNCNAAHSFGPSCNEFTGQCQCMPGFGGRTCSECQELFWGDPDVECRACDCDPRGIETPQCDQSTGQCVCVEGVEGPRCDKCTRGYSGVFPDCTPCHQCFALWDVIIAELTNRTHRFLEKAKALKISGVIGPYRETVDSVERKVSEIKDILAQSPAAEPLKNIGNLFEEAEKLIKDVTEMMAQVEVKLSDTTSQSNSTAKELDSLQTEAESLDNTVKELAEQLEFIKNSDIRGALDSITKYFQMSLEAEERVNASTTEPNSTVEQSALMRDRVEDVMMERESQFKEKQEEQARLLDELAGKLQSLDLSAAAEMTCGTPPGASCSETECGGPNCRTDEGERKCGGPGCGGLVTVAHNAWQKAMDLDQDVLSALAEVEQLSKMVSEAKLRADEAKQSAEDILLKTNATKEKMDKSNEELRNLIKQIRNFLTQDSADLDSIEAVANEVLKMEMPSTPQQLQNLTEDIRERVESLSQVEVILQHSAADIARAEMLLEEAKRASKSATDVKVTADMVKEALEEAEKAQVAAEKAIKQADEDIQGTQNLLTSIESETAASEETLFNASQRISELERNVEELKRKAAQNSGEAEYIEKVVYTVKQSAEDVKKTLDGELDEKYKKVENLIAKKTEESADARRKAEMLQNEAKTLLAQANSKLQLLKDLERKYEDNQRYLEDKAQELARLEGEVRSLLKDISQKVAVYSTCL
UniProt P02751, residues 32-2477: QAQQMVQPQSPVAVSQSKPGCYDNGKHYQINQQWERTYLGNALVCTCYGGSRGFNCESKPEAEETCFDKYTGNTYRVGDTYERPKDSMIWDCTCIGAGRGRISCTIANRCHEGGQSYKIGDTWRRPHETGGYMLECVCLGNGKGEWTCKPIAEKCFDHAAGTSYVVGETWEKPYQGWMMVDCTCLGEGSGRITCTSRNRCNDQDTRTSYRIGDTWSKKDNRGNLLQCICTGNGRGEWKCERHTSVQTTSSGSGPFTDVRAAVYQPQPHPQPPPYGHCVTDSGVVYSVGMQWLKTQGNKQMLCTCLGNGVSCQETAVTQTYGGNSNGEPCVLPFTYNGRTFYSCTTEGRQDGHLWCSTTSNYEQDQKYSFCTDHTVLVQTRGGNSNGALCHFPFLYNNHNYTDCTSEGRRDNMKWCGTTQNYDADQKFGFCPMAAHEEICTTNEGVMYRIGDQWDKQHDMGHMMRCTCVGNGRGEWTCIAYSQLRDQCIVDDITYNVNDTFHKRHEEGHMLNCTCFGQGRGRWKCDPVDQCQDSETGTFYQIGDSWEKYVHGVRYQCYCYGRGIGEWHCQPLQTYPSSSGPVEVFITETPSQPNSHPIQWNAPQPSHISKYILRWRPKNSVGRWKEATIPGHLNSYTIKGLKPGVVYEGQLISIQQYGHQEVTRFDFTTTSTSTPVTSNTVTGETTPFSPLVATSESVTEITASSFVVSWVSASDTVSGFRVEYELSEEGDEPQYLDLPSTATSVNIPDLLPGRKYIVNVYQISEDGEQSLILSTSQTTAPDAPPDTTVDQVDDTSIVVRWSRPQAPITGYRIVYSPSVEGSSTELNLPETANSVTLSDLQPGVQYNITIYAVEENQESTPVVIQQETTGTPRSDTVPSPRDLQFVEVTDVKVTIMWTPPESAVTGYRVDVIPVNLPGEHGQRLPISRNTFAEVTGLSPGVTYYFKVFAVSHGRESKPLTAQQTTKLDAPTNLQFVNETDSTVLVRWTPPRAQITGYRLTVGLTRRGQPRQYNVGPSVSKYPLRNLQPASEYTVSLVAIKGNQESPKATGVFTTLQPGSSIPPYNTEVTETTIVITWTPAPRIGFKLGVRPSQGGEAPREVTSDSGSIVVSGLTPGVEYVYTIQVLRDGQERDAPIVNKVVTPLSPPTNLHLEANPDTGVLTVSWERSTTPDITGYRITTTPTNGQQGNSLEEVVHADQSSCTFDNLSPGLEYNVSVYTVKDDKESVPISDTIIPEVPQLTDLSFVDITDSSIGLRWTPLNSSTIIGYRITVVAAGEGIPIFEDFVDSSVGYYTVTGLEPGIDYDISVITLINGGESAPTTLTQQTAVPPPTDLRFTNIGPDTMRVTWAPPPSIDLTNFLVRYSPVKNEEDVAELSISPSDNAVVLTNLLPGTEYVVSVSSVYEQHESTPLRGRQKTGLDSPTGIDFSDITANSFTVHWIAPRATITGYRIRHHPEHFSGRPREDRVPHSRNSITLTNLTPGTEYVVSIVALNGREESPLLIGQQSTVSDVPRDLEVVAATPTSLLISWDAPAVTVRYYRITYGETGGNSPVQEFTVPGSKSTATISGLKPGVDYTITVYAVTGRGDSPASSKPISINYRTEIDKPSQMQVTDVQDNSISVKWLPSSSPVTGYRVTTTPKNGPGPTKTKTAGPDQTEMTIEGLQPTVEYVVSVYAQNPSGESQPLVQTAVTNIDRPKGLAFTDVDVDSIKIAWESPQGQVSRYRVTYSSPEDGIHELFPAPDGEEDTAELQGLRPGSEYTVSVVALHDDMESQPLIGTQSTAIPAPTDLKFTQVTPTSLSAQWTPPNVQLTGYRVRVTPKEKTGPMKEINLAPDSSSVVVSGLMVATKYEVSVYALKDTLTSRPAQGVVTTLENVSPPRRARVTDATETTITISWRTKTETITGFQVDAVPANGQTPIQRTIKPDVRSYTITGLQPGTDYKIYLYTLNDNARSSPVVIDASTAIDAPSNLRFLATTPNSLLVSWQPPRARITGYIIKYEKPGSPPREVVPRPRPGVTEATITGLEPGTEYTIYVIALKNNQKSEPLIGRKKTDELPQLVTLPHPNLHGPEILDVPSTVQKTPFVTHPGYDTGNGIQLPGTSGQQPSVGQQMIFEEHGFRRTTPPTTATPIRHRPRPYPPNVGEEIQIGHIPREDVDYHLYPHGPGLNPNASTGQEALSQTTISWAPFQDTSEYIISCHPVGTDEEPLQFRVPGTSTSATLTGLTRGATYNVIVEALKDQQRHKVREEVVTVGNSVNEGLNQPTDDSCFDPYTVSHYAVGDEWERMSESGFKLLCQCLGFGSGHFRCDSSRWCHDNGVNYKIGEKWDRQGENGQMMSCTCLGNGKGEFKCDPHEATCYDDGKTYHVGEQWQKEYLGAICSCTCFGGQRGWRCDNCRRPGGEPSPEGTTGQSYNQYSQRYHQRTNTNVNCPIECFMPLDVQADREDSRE

Assays:
Test in all cases: cross-linking; Sulfo-SBED-labelled phage (10^12 pfu) incubated 1 h at 4 °C in the dark with hCMEC/D3 cells, with or without 20 ng/mL rhIL-1β for 2 h; UV cross-linking, cleavage with TCEP, lysis, capture of biotin-labelled proteins on streptavidin beads, nLC-MS/MS; Ph88/WT phage ratio higher than 1.33 as criterion; two independent experiments; only the binder purified
[1] = biological target: T1, flotillin-1 (endogenous, hCMEC/D3 cells) (human (endogenous in hCMEC/D3)) (UniProt O75955)
T1 sequence: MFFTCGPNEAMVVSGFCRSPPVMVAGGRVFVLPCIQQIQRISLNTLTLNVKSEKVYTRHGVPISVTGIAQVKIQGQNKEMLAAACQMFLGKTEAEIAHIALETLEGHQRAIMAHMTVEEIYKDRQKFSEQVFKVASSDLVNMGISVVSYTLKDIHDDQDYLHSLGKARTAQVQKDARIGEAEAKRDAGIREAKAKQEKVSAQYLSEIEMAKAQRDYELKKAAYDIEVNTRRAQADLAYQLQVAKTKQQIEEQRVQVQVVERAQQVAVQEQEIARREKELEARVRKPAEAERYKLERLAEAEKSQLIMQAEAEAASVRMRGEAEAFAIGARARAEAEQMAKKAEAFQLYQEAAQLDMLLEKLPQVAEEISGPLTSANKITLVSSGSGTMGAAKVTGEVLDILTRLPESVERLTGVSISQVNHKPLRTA

[2] = biological target: laminin subunit β1 (endogenous, hCMEC/D3 cells) (human (endogenous in hCMEC/D3)) (UniProt P07942)
[3] = biological target: fibronectin (endogenous, hCMEC/D3 cells) (human (endogenous in hCMEC/D3)) (UniProt P02751)

TPMMPETSQRFK (Sulfo-SBED on primary amines of the phage surface) [phage 88 (M13 phage displaying peptide-88 as a fusion of the coat protein pIII)]
binding [1]: no binding
binding [2]: binds
binding [3]: binds
